# Measurements as given in PubChem BioAssay AID270 (DTP/NCI, 2004).
# The list does not hold the whole screen: it is rich in T/C values a quarter to a half above the control, in often repeated tests (any T/C) and in doses without a T/C. Other doses and runs of a compound stand elsewhere. T/C is the treated group as % of the vehicle group. Schedule codes are those of the source, taken here to give the interval after Q, in days (D) or hours (H), and the number of doses after X. Some doses have a count of surviving animals in place of a T/C: the source files T/C as zero there, which appears to mark a toxic dose or a test without result, not a measured value. Some survivor counts are full or nearly so, which does not show that the dose was tolerated: survival well below the control is almost never listed, so the zero probably covers shortened survival too. Survivors were counted at the toxicity check, usually on the fifth day, unless a day is given; later deaths do not show. Some entries were tested several times; the values are given in rising order. For survival time, this PubChem deposit counts one and a half times the control or more as active, and values a quarter to a half above the control carry no call in these data; other NCI protocols may use other cut-offs.
# System: BDF1 mice, s.c. Lewis lung carcinoma, T/C %
# Test: NCI In Vivo Anticancer Drug Screen. Data for tumor model Lewis Lung Carcinoma (subcutaneous) in B6D2F1 (BDF1) mice
# Method in brief: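 Antitumor effect in vivo is scored from survival or tumor burden, reported as treated relative to vehicle controls.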
# [1] = T/C endpoint: mean tumor weight, dose: 100.0 mg/kg/injection, schedule: Q01DX011 (ip), vehicle: saline, higher T/C = larger tumour
smiles,measurement,setting,value
COc1cc(NS(C)(=O)=O)ccc1Nc1c2ccc(Cl)cc2nc2c(OC)cccc12,T/C,"T/C endpoint: median survival time, dose: 1.2 mg/kg/injection, schedule: Q01DX009 (ip), vehicle: other, higher T/C = longer survival",134 % of control
same,T/C,"T/C endpoint: median survival time, dose: 4.5 mg/kg/injection, schedule: Q01DX009 (ip), vehicle: other, higher T/C = longer survival",145 % of control
same,survivor count,"T/C endpoint: median survival time, dose: 9.0 mg/kg/injection, schedule: Q01DX009 (ip), vehicle: other, higher T/C = longer survival",10 of 10
same,survivor count,"T/C endpoint: median survival time, dose: 18.0 mg/kg/injection, schedule: Q01DX009 (ip), vehicle: other, higher T/C = longer survival",10 of 10
same,survivor count,"T/C endpoint: median survival time, dose: 36.0 mg/kg/injection, schedule: Q01DX009 (ip), vehicle: other, higher T/C = longer survival",10 of 10
O=CC1CO1 (configuration not stated),survivor count,[1],0 of 6
N/C(CCSc1ccccc1N=Cc1ccccc1O)=N/O,survivor count,"T/C endpoint: median survival time, dose: 6.25 mg/kg/injection, schedule: Q01DX009 (ip), vehicle: olive oil, sesame oil, peanut oil, higher T/C = longer survival",9 of 10
same,survivor count,"T/C endpoint: median survival time, dose: 12.5 mg/kg/injection, schedule: Q01DX009 (ip), vehicle: olive oil, sesame oil, peanut oil, higher T/C = longer survival",10 of 10
same,survivor count,"T/C endpoint: median survival time, dose: 25.0 mg/kg/injection, schedule: Q01DX009 (ip), vehicle: olive oil, sesame oil, peanut oil, higher T/C = longer survival",9 of 10
same,survivor count,"T/C endpoint: median survival time, dose: 50.0 mg/kg/injection, schedule: Q01DX009 (ip), vehicle: olive oil, sesame oil, peanut oil, higher T/C = longer survival",10 of 10
same,survivor count,"T/C endpoint: median survival time, dose: 100.0 mg/kg/injection, schedule: Q01DX009 (ip), vehicle: olive oil, sesame oil, peanut oil, higher T/C = longer survival",2 of 10
Nc1nc2c(ncn2C2OC(CO)C(O)C2N)c(=O)[nH]1 (configuration not stated),survivor count,"T/C endpoint: median survival time, dose: 6.25 mg/kg/injection, schedule: Q01DX009 (ip), vehicle: saline, higher T/C = longer survival",10 of 10
C1=Cc2ccccc2CC1,survivor count,"T/C endpoint: mean tumor weight, dose: 450.0 mg/kg/injection, schedule: Q01DX011 (ip), vehicle: other, higher T/C = larger tumour",2 of 6
CN(C)[C@@H]1C(=O)C(C(N)=O)=C(O)[C@]2(O)C(=O)C3C(=O)c4c(O)ccc(Cl)c4[C@](C)(O)[C@H]3C[C@@H]12 (some centres not stated),survivor count,"T/C endpoint: median survival time, dose: 100.0 mg/kg/injection, schedule: Q01DX009 (ip), vehicle: Klucel (hydroxypropylcellulose) (HPC), higher T/C = longer survival",10 of 10
same,survivor count,"T/C endpoint: median survival time, dose: 200.0 mg/kg/injection, schedule: Q01DX009 (ip), vehicle: Klucel (hydroxypropylcellulose) (HPC), higher T/C = longer survival",9 of 10
same,survivor count,"T/C endpoint: median survival time, dose: 400.0 mg/kg/injection, schedule: Q01DX009 (ip), vehicle: Klucel (hydroxypropylcellulose) (HPC), higher T/C = longer survival",7 of 10
CC1OC(O[C@@H]2C=C3CC[C@@H]4[C@H](CC[C@]5(C)[C@@H](c6ccc(=O)oc6)CC[C@]45O)[C@@]3(C)CC2)C(O)C(OC2OC(CO)C(O)C(O)C2O)C1O (some centres not stated),survivor count,"T/C endpoint: mean tumor weight, dose: 10.0 mg/kg/injection, schedule: Q01DX011 (ip), vehicle: carboxymethylcellulose (CMC), higher T/C = larger tumour",3 of 6
same,survivor count,"T/C endpoint: mean tumor weight, dose: 20.0 mg/kg/injection, schedule: Q01DX011 (ip), vehicle: carboxymethylcellulose (CMC), higher T/C = larger tumour",3 of 6
same,survivor count,"T/C endpoint: mean tumor weight, dose: 40.0 mg/kg/injection, schedule: Q01DX011 (ip), vehicle: carboxymethylcellulose (CMC), higher T/C = larger tumour",0 of 6
CC(=O)Nc1ccc2nc3ccc(NC(C)=O)cc3[n+](-c3ccccc3)c2c1,survivor count,[1],3 of 6
CCN(CC)Cc1c(O)ccc2c3c(c(=O)oc12)CCCC3,survivor count,"T/C endpoint: median survival time, dose: 14.5 mg/kg/injection, schedule: Q01DX009 (ip), vehicle: Klucel (hydroxypropylcellulose) (HPC), higher T/C = longer survival",5 of 5
same,survivor count,"T/C endpoint: median survival time, dose: 116.0 mg/kg/injection, schedule: Q01DX009 (ip), vehicle: Klucel (hydroxypropylcellulose) (HPC), higher T/C = longer survival",0 of 5
Cc1ccc(S(=O)(=O)[O][Pb]([CH3])([CH3])[CH3])cc1,T/C,"T/C endpoint: median survival time, dose: 0.37 mg/kg/injection, schedule: Q01DX009 (ip), vehicle: saline, higher T/C = longer survival",141 % of control
same,T/C,"T/C endpoint: median survival time, dose: 0.75 mg/kg/injection, schedule: Q01DX009 (ip), vehicle: saline, higher T/C = longer survival",129 % of control
c1ccc([As+](c2ccccc2)(c2ccccc2)c2ccccc2)cc1,survivor count,"T/C endpoint: median survival time, dose: 7.5 mg/kg/injection, schedule: Q01DX009 (ip), vehicle: Klucel (hydroxypropylcellulose) (HPC), higher T/C = longer survival",10 of 10
CSc1ncc(Br)c(Sc2nc(N)nc3nc[nH]c23)n1,T/C,"T/C endpoint: mean tumor weight, dose: 2.5 mg/kg/injection, schedule: Q01DX011 (ip), vehicle: other, evaluated on day 12, higher T/C = larger tumour",130 % of control
same,survivor count,"T/C endpoint: mean tumor weight, dose: 40.0 mg/kg/injection, schedule: Q01DX011 (ip), vehicle: other, higher T/C = larger tumour",1 of 6
CC1CCC2(OC1)OC1C(O)C3C4CCC5CC(OC6OC(CO)C(OC7OC(CO)C(O)C(OC8OCC(O)C(O)C8O)C7OC7OC(CO)C(O)C(OC8OC(CO)C(O)C(O)C8O)C7O)C(O)C6O)C(O)CC5(C)C4CCC3(C)C1C2C (configuration not stated),survivor count,"T/C endpoint: mean tumor weight, dose: 25.0 mg/kg/injection, schedule: Q01DX011 (ip), vehicle: carboxymethylcellulose (CMC), higher T/C = larger tumour",2 of 6 and 3 of 6
same,survivor count,"T/C endpoint: mean tumor weight, dose: 50.0 mg/kg/injection, schedule: Q01DX011 (ip), vehicle: carboxymethylcellulose (CMC), higher T/C = larger tumour",0 of 6
same,survivor count,"T/C endpoint: mean tumor weight, dose: 100.0 mg/kg/injection, schedule: Q01DX011 (ip), vehicle: carboxymethylcellulose (CMC), higher T/C = larger tumour",0 of 6
same,survivor count,"T/C endpoint: mean tumor weight, dose: 200.0 mg/kg/injection, schedule: Q01DX011 (ip), vehicle: carboxymethylcellulose (CMC), higher T/C = larger tumour",0 of 6
same,T/C,"T/C endpoint: median survival time, dose: 0.62 mg/kg/injection, schedule: Q01DX009 (ip), vehicle: saline, higher T/C = longer survival",129 % of control
